Reference: PubChem BioAssay AID624297 (National Center for Advancing Translational Sciences (NCATS), 2012)
Screen size: about 340,000 compounds; about 6,200 (1.8%) were called active. The shares of active, inactive and inconclusive entries below differ from those in the screen. Calls come from the whole dose curve; as a rule, active = well fitted activation curve with a large enough effect; inconclusive = small, poorly fitted or top-dose-only effect; inactive = no such curve, though single readings can be large or run the other way. Potencies of inconclusive entries are doubtful fits and often do not repeat.

Assay: A quantitative high throughput screen for small molecules that induce DNA re-replication in SW480 colon adenocarcinoma cells. Note: nearly all actives have a fitted effect of over 55% in size.
Details: Hoechst DNA content imaging, 48 h; series mostly up to 46.1 µM
Summary of the method: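 Per well, 250 cells were exposed to pinned compound for 48 hr. Nuclear DNA was visualised with Hoechst (40 min, 37 C) and total object intensity recorded by fluorescence scanning.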
Potency is the fitted concentration of half-maximal effect.

Row | SMILES | Potency
1 | CCCOc1ccc(C(=O)CCN2CCCCC2)cc1 | inconclusive: 11.6 µM [activator, partial curve, poor fit]
2 | O=C(COC(=O)c1ccccc1F)Nc1ccc2c(c1)OCCO2 | inactive
3 | CN(C)C(=O)c1ccc(Nc2nnc(-c3ccc(O)cc3)c3ccccc23)cc1 | inactive
4 | COc1cccc(C(=O)NC2CC3CCCC(C2)N3CC(=O)Nc2ccccc2C(F)(F)F)c1 (configuration not stated) | active: 16.4 µM
5 | COc1ccc(CC(=O)Nc2nc3ccccc3s2)cc1S(=O)(=O)N1CCOCC1 | inactive
6 | CCOC(=O)NC(=O)CSc1nnnn1-c1ccc(Cl)cc1 | active: 5.17 µM
7 | COC(=O)[C@@]12CCCCN1[C@H](c1ccc(-c3ccc(F)cc3)c(OC)c1)[C@@H]1C(=O)N(C)C(=O)[C@@H]12 | inconclusive: 0.0073 µM [activator, full curve, poor fit]
8 | OCc1cccc(Nc2ncnc3sc4c(c23)CCCCC4)c1 | inactive
9 | O=C(Cc1ccc(Cl)cc1)N1CCc2ccccc2C1 | inconclusive: 2.31 µM [activator, partial curve, poor fit]
10 | COc1ccc(N=c2cc(-c3ccc(OC)cc3)oc3ccccc23)cc1 | inconclusive: 15.8 µM [activator, partial curve, poor fit]
11 | O=C(Nc1ccc(Cl)cn1)c1cccc(F)c1 | active: 10.3 µM
12 | CN1CCN(c2ccccc2NC(=O)c2sc3ccccc3c2Cl)CC1 | inconclusive: 20.6 µM [activator, single point]
13 | CC(NC(=O)CCC(=O)NC(C)c1ccccc1)c1ccccc1 (configuration not stated) | inconclusive: 29.1 µM [activator, single point]
14 | Cc1ccc(C(=O)CSc2nnc(-c3c[nH]c4ccccc34)o2)cc1 | inconclusive: 23.1 µM [activator, partial curve, poor fit]
15 | O=C(NNC(=O)c1ccccn1)c1ccc(OC(F)F)cc1 | inconclusive: 10 µM [activator, partial curve]
16 | N/C(=N\OC(=O)c1ccc(Cl)cc1)c1ccccn1 | inconclusive: 29.1 µM [activator, single point]
17 | CCN(CC)S(=O)(=O)c1ccc(O)c(C(=O)OCC(=O)N2c3ccccc3CC2C)c1 (configuration not stated) | inconclusive: 3.66 µM [activator, full curve, poor fit]
18 | Cc1ccc(NC(=O)Cn2c(O)c(N=NS(=O)(=O)c3ccc(C)cc3)c3ccccc32)cc1 | inconclusive: 29.1 µM [activator, single point]
19 | COCCCN=C1NN=C(c2cc(C)n(-c3ccccc3)c2C)CS1 | inconclusive: 29.1 µM [activator, single point]
20 | COC(=O)C(Cc1ccccc1)NC(=O)c1cc(S(=O)(=O)N(C)C)ccc1Cl (configuration not stated) | inactive
21 | CC(C)(C)c1cc(NCc2ccccn2)n2ncc(-c3ccc(Cl)cc3)c2n1 | inactive
22 | COc1ccc(OCC(O)Cn2cnc(-c3ccc(Br)cc3)c2)cc1 (configuration not stated) | inactive
23 | COc1ccccc1C(=O)N/N=C(\C)CC(=O)Nc1ccc(Cl)cn1 | inconclusive: 9.2 µM [activator, single point]
24 | COC(=O)c1ccc(-c2sc3nc(N4CCOCC4)c4c(c3c2N)CCCC4)o1 | active: 0.631 µM

A draw from above in order of count of non-hydrogen atoms, low to high:
Row | SMILES | Potency
1 | CCCOc1ccc(C(=O)CCN2CCCCC2)cc1 | inconclusive: 11.6 µM [activator, partial curve, poor fit]
13 | CC(NC(=O)CCC(=O)NC(C)c1ccccc1)c1ccccc1 (configuration not stated) | inconclusive: 29.1 µM [activator, single point]
7 | COC(=O)[C@@]12CCCCN1[C@H](c1ccc(-c3ccc(F)cc3)c(OC)c1)[C@@H]1C(=O)N(C)C(=O)[C@@H]12 | inconclusive: 0.0073 µM [activator, full curve, poor fit]

Later entries:

Row | SMILES | Potency
25 | Cc1ccccc1C1NC(=S)NC2=C1C(=O)CCC2 (configuration not stated) | inconclusive: 4.47 µM [activator, full curve, poor fit]
26 | O=C(NNC(=O)c1ccc(Cl)s1)c1csc(N2CCOCC2)n1 | inactive
27 | O=C(N/N=C/c1ccc(-c2ccc(Cl)c(C(=O)O)c2)o1)c1cc2c(ccc3ccccc32)o1 | inconclusive: 20.6 µM [activator, single point]
28 | CSc1cccc(NC(=O)CN(C)S(=O)(=O)c2cnc[nH]2)c1 | inconclusive: 3.66 µM [activator, partial curve, poor fit]
29 | CC(OC(=O)CCC(=O)c1cccs1)C(=O)NC1CCCCC1C (configuration not stated) | inconclusive: 29.1 µM [activator, single point]
30 | COc1ccccc1-c1sc2ccccc2c1C#Cc1ccc(N(C)C)cc1 | active: 8.2 µM
31 | NC(=O)CCN1CCN(C(=O)c2ccc3nc(Cc4cccc(Cl)c4)oc3c2)CC1 | inactive
32 | CCC1Sc2ccccc2N(CC(=O)NC2CCCCC2)C1=O (configuration not stated) | inactive
33 | COc1ccccc1CNC(=O)COC(=O)c1c(C)nn(-c2ccccc2)c1Cl | inactive
34 | Cc1csc(NC(=O)CCNC(=O)c2ccc([N+](=O)[O-])cc2)n1 | inactive
35 | COc1ccc(-c2cccc(-c3nc4ccc(Cl)cn4c3NC3CCCCC3)c2)cc1 | inconclusive: 23.1 µM [activator, partial curve, poor fit]
36 | COc1cc(Cl)ccc1OCc1cc(C(=O)N[C@H]2CCCCNC2=O)no1 | inactive
37 | COC(=O)c1c(NC(NC(=O)C(C)(C)C)C(Cl)(Cl)Cl)sc2c1CCC2 (configuration not stated) | inconclusive: 18.4 µM [activator, single point]
38 | COC(=O)c1cc2ccsc2n1Cc1nc(-c2ccc(OC)cc2)oc1C | inconclusive: 3.26 µM [activator, partial curve, poor fit]
39 | Cc1cn(CC(=O)N[C@H](CO)Cc2c[nH]c3ccccc23)c(=O)[nH]c1=O | inactive
40 | COCCN(Cc1cc2cc(C)cc(C)c2nc1Cl)C(=O)Nc1ccccc1 | inconclusive: 32.6 µM [activator, partial curve, poor fit]
41 | COc1cc(/C=N/NC(=O)CCN2CCCCC2)ccc1O | inactive
42 | CCOc1ccc(C(=O)OCC(=O)N(Cc2ccccc2)Cc2ccccc2)cc1OC | inactive
43 | CCCCCCCCCCCCCCCCn1cc[n+](C)c1 | inconclusive: 29.1 µM [activator, single point]
44 | COCCNC(=S)Nc1ccccn1 | inconclusive: 8.2 µM [activator, partial curve]
45 | COC(=O)[C@H](CCSC)NC(=O)Cn1cnc2c(OCc3ccccc3)ncnc21 | inconclusive: 25.9 µM [activator, single point]
46 | Cc1cccn2cc(CNc3ccccc3)nc12 | inactive
47 | COc1ccc(/C=C2\SC(=S)N(CC(=O)OCC(=O)Nc3cc(Cl)cc(Cl)c3)C2=O)cc1 | inconclusive: 3.66 µM [activator, single point]
